Test results reported in paper PMC6925144, “A prospective compound screening contest identified broader inhibitors for Sirtuin 1” (Scientific Reports, 2019).
The full ranking holds about 3,200 compounds; the median of “TSA(without NAD+) / Primary screening (TSA) / delta Tm (K)” is about -0.07, and the highest 2% start at about 0.37. Some of the results follow.

Chains of the proteins cited; added tags and fusions are not shown. Residues count along the entry.
UniProt Q96EB6, 2-747 limits assumed: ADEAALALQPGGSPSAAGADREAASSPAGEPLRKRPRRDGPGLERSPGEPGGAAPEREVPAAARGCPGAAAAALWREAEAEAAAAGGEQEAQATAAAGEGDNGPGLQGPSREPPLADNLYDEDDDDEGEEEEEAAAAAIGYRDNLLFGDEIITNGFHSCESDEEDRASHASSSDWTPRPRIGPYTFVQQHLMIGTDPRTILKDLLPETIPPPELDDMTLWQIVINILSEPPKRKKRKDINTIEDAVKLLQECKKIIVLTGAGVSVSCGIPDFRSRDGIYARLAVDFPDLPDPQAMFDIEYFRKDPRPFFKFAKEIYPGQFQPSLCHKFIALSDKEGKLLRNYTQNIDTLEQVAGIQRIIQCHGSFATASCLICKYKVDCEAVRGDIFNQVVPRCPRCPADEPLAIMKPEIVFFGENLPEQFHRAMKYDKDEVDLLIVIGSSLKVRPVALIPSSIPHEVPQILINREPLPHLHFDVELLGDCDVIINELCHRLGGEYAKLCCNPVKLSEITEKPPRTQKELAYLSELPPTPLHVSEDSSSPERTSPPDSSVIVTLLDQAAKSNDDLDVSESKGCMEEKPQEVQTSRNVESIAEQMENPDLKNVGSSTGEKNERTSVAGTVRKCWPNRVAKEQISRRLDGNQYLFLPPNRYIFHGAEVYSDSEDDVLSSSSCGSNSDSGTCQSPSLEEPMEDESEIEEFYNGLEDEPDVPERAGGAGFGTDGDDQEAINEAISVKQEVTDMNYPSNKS

target: NAD-dependent deacetylase Sirtuin 1 (human, UniProt Q96EB6); assay: primary screen, delta tm; set-up: single well (n = 1); conditions: 10 µM
Summary of the method: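 Thermal shift of Sirtuin 1 measured without NAD+, compound at 10 µM (n = 1); value is ΔTm, with hits defined as ΔTm > 0.45 K or < −1.5 K. Hits retested at 5, 10, 20 µM (n = 4) and counterscreened on bovine carbonic anhydrase and ABL1 SH2 domain.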

Structure (SMILES)	TSA(without NAD+) / Primary screening (TSA) / delta Tm (K)
COc1ccc(N(C)S(=O)(=O)c2cccc(C(=O)N(C)CCOc3ccc(F)cc3)c2)cc1	-0.08
Cc1cccc(N(Cc2ccccc2)C(=O)COC(=O)C23CC4CC(CC(O)(C4)C2)C3)c1	-0.08
Cn1c(-c2ccccc2)cc2ccccc21	-0.08
COc1cccc(C2C(C(=O)c3ccc(Cl)cc3)=C(O)C(=O)N2CCCN2CCOCC2)c1 (stereo not shown)	-0.12
CC(C)C(CNc1ccc2nnnn2n1)N1CCc2ccccc2C1 (stereo not shown)	0.02
O=C1CCN(c2ncnc3cc(Cl)ccc23)CCN1	-0.08
O=C(NCCN1CCN(c2ccc(F)cc2)CC1)c1cc[nH]n1	-0.12
Cc1c(F)cc(C(N)=O)cc1NCC(=O)Nc1ccc([N+](=O)[O-])cc1	-0.11
O=C(CCCn1c(=O)oc2cc([N+](=O)[O-])ccc21)N1CCN(Cc2ccc(Cl)s2)CC1	-0.07
CN(c1ccccc1)S(=O)(=O)c1cccc(NC(=O)CNc2cccc3ccccc23)c1	0.17
O=C(CSc1nc(-c2ccccc2)c(-c2ccccc2)o1)c1c[nH]c(C(=O)N2CCCC2)c1	-0.04
Cc1ccccc1N1C(=O)c2ccc(C(=O)OCC(N)=O)cc2C1=O	-0.08
O=C(O)c1ccc2[nH]c3c(c2c1)CCCC3	-0.15
CC1CCc2[nH]c3ccc(C(=O)NC4CC4)cc3c2C1 (stereo not shown)	-0.14
O=C(Cn1ccc(=O)c2ccccc21)Nc1ccc(N2CCCCC2)nc1	-0.02
O=C1CCCN1c1ccc(O)cc1	-0.28
COc1cc(/C=N/NC(=O)c2cc3c(s2)CCCC3)ccc1OCC(=O)Nc1ccc(C)cc1	-0.22
CCOc1ccc2[nH]c(SCC(=O)N3CCCCC3C(N)=O)nc2c1 (stereo not shown)	-0.18
Cc1cc(CNc2ccc(Cl)cc2C(N)=O)no1	-0.03
CC(OC(=O)CCC(=O)c1ccc(F)cc1)C(=O)Nc1ccc(C(N)=O)cc1 (stereo not shown)	-0.02
CCCOc1ccc(C2C(C(=O)/C=C/c3ccco3)=C(O)C(=O)N2CCCN2CCOCC2)cc1 (stereo not shown)	-0.02
COc1ccc2cc(CN(C)CC(=O)Nc3ccc(C)cc3)ccc2c1	-0.02
c1ccc(CN2CCCCCC2)c(CNc2ccc3nnnn3n2)c1	-0.11
CCC(C)c1ccccc1NC(=O)Cc1coc2cc3c(cc12)CCC3 (stereo not shown)	-0.04

Quoted at random: four entries already listed
Structure (SMILES)	TSA(without NAD+) / Primary screening (TSA) / delta Tm (K)
c1ccc(CN2CCCCCC2)c(CNc2ccc3nnnn3n2)c1	-0.11
COc1cc(/C=N/NC(=O)c2cc3c(s2)CCCC3)ccc1OCC(=O)Nc1ccc(C)cc1	-0.22
CCC(C)c1ccccc1NC(=O)Cc1coc2cc3c(cc12)CCC3 (stereo not shown)	-0.04
Cc1c(F)cc(C(N)=O)cc1NCC(=O)Nc1ccc([N+](=O)[O-])cc1	-0.11

Carrying on.

Structure (SMILES)	TSA(without NAD+) / Primary screening (TSA) / delta Tm (K)
CCc1ccc(N(C(C)=O)c2nc(COC(=O)CNC(=O)C34CC5CC(CC(C5)C3)C4)cs2)cc1	-0.03
COc1ccc(CCNC(=O)COC(=O)CCc2ccc(S(=O)(=O)N3CCCCC3)cc2)cc1OC	-0.14
O=S(=O)(NC1CCCNC1)c1ccccc1Br (stereo not shown)	-0.33
COc1cc(CN(C)C(=O)c2ccc(CS(C)(=O)=O)cc2)ccc1OCc1ccccc1	-0.17
CO/N=C(/C)c1ccc2[nH]c(=O)[nH]c2c1	0.06
Cc1cc(C(=O)COC(=O)C23CC4CC(CC(O)(C4)C2)C3)c(C)n1-c1ccc2c(c1)OCO2	0.03
Cc1cc(=O)c2c(C)nn(-c3cccc(Cl)c3)c2[nH]1	0.18
OC(CCc1ccccc1)CN1CCN(c2cncc3ccccc23)CC1 (stereo not shown)	-0.11
CCOc1ccc2[nH]c(SCC(=O)N3CCCC(C(N)=O)C3)nc2c1 (stereo not shown)	-0.15
COc1ccc2c(C=C3C(=O)N(C)C(=O)N(C)C3=O)cccc2c1	-0.13
CCOC(=O)c1ccccc1NC(=O)COc1ccc(C(N)=O)cc1	-0.07
Cc1c(NC(=O)c2cnc3ccccc3n2)c(=O)n(-c2ccccc2)n1C	-0.03
CCc1cc2c(N3CCC(C(N)=O)CC3)nc(C(C)C)nc2s1	-0.03
COc1ccccc1CNC(=O)/C(=C/c1ccccc1)c1ccccc1	-0.13
Cc1cc(NC(=O)CSc2nnc(-c3c[nH]c4ccccc34)n2Cc2ccco2)no1	-0.02
O=C(CC(F)(F)F)Nc1cccc(F)c1	-0.02
CNc1cc(C)nc2c(-c3ccccc3)c(C(F)(F)F)nn12	-0.07
O=C(Nc1ccc2nc[nH]c(=O)c2c1)c1ccn(-c2ccccc2)n1	0.08
Cc1noc(-c2cccc(NC(=O)c3ccccc3-c3ncc(-c4ccccc4)o3)c2)n1	-0.12
COCC(C)Nc1ncnc2ccsc12 (stereo not shown)	-0.04
NCCSCC(=O)O	-0.32
Cc1nc(S)sc1CC(=O)NC1CCCCC1C (stereo not shown)	-0.08
CN(CC1OCCc2ccccc21)C(=O)c1cccc(-n2ccnn2)c1 (stereo not shown)	-0.18
COc1ccc2[nH]cc(C3=CCN(C(=O)c4cc(C)no4)CC3)c2c1	0.02

Structure (SMILES)	TSA(without NAD+) / Primary screening (TSA) / delta Tm (K)
Cc1ccc(-c2nnc(S)n2C)cc1	-0.08
O=C(CCCc1cccs1)NCc1nc2ccccc2[nH]1	-0.21
Cc1ccc(C2CC(c3ccc4c(c3)OCO4)=NN2S(C)(=O)=O)cc1 (stereo not shown)	-0.24
C#CCNC(=O)Cc1c(C)nc2c(c1C)c(=O)[nH]n2C	-0.13
CC(C)C(NC(N)=O)C(=O)Nc1ccc(CCO)cc1 (stereo not shown)	-0.12
CC(OC(=O)c1ccc2c(c1)S(=O)(=O)c1ccccc1C2=O)C(=O)Nc1ncnc2[nH]cnc12 (stereo not shown)	-0.11
C#CCn1cnc2c(N)ncnc21	0.09
COc1ccc(C(NC(=O)C(C)NC(=O)C23CC4CC(CC(C4)C2)C3)c2ccccc2)cc1 (stereo not shown)	-0.07
C/C=C/CCN	0.03
CCC(NCc1cccc2cn[nH]c12)c1ccc2c(c1)OCCO2 (stereo not shown)	-0.23
CCn1cc(C2CS(=O)CCN2c2ncnc3c2oc2ccccc23)cn1 (stereo not shown)	-0.23
Nc1ccn([C@@H]2O[C@H](CO)[C@@H](O)[C@@H]2O)c(=O)n1	0.12
CCOC(=O)c1c(NC(=O)COC(=O)C23CC4CC(CC(Cl)(C4)C2)C3)sc(C(=O)N(CC)CC)c1C	0.08
O=C(O)c1ccc2[nH]c(=O)[nH]c2c1	-0.12
Cn1cc(CCC(=O)NCC(=O)O)c2ccccc21	-0.22
O=C(O)c1ccc(NC(=O)C2CC2c2ccco2)cc1 (stereo not shown)	-0.13
Cn1cc(S(=O)(=O)N2CCN(C(=O)CSCc3nc4ccccc4[nH]3)CC2)cc1C(N)=O	-0.04
CCc1nnc(N2CCC(n3cnc(C(N)=O)c3N)CC2)c(C#N)c1CC	-0.02
CCN1CCN(C(=O)CCNC(=O)/C=C/c2ccc(OC)cc2)CC1	0.02
CCc1cc2c(N3CCN(Cc4ccc5c(c4)OCO5)CC3)nc(C)nc2s1	-0.31
Cc1ccc(N(C)S(=O)(=O)c2cccc(C(=O)Nc3ccncc3)c2)cc1	-0.18
CC(C)Cc1ccc(C(NC(C)C(=O)Nc2ccc(C(N)=O)cc2)C(C)C)cc1 (stereo not shown)	-0.24
CC(=O)Nc1ccc(C(=O)Nc2cccc(S(=O)(=O)NCc3ccco3)c2)s1	-0.02
COC(C)CCN (stereo not shown)	-0.12

Structure (SMILES)	TSA(without NAD+) / Primary screening (TSA) / delta Tm (K)
Cc1ccc(CN(C)CC(=O)Nc2ccc3c(c2)OCCCO3)cc1	-0.12
CSc1cccc(N2CC(C(=O)OCC(N)=O)CC2=O)c1 (stereo not shown)	-0.27
O=C(Nc1ccccc1)C1CCN(C(=O)c2cccc(S(=O)(=O)NCc3ccccc3)c2)CC1	-0.13
NC(=S)c1ccc(C(=O)NC2CCC(O)CC2)cc1 (stereo not shown)	0.08
O=S(=O)(NCCNS(=O)(=O)c1cccs1)c1cccs1	-0.03
O=C(CSCC(=O)Nc1cccc2ccccc12)Nc1ccccc1F	-0.22
Cc1cccc(-c2ccc(C(=O)N3CCc4ccccc4C3)c(=O)[nH]2)c1	0.09
COc1ccc2[nH]c3c(N(C)C)ncnc3c2c1	-0.11
Cc1ccc2oc(=N)c3c(N)nc(-c4ccc5c(c4)OCO5)cc3c2c1	-0.04
CCC(=O)c1ccc(OCC(=O)NNC(=O)c2cc(C)oc2C)cc1	-0.04
Cc1cc(C)cc(OCC(=O)N2Cc3ccccc3CC2C(=O)O)c1 (stereo not shown)	-0.03
CCc1ccc(C(CO)NCc2cn3cc(Cl)ccc3n2)cc1 (stereo not shown)	-0.04
Cc1ccc2c(COc3ncnc4sc5c(c34)CCCC5)cc(=O)oc2c1	0.19
C=CCOc1ccc(C2C(C(=O)c3ccccc3)=C(O)C(=O)N2CCCN2CCOCC2)cc1 (stereo not shown)	0.03
O=C(O)C1CC(=O)N(c2cccc(-c3nc(C4CC4)no3)c2)C1 (stereo not shown)	0.03
CCCCNC(=O)CN1CCN(c2ncnc3cc(Cl)ccc23)CC1	-0.15
CN(c1cnccn1)S(=O)(=O)c1ccc2c(c1)C(C)(C)C(=O)N2	-0.15
Cc1nc(N2CCC(C(N)=O)CC2)c2c3c(sc2n1)CCCC3	0.56
COc1ccccc1C(=O)NC(CCSC)C(=O)NCCN1C(=O)S/C(=C/c2ccc3c(c2)OCO3)C1=O (stereo not shown)	-0.04
Cc1ccc2nc(-c3ccc(NC(=O)C(C)Cl)cc3)sc2c1 (stereo not shown)	0.22
Oc1ccccc1N1CCN(CCCc2cncc(F)c2)CC1	-0.08
COCC(C)C(=O)O (stereo not shown)	-0.13
